Experimental data reported in doi:10.1101/718940.
These are yes or no findings as the source states them, for the method shown. In cells and extracts the contact can be indirect. Some entries that bind do so weakly or less than the wild type.

The chains behind the UniProt entries cited, without tags or fusion partners.
UniProt Q8NDF8: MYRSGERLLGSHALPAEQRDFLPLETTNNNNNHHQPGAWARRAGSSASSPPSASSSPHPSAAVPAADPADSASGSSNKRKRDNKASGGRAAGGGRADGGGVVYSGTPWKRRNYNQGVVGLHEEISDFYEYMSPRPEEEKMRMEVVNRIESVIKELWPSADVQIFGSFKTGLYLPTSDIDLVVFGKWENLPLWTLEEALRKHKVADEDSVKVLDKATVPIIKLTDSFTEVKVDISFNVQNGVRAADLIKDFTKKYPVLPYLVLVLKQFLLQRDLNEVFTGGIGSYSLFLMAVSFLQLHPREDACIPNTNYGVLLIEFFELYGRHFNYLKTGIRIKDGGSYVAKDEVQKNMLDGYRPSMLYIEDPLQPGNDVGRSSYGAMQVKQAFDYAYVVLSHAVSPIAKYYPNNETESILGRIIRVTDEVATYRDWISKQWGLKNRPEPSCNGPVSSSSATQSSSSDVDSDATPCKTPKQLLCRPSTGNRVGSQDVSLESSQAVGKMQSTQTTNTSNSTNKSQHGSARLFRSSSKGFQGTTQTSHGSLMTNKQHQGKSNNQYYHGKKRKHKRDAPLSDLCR

Biological target: terminal nucleotidyltransferase protein 4B (TENT4B) (human (endogenous in HepG2-HBV)) (UniProt Q8NDF8)
Assay: co-IP

B1: zinc finger CCHC-type containing 14 (ZCCHC14) (protein, UniProt Q8WYQ9 1-949)
chain: MASNHPAFSFHQKQVLRQELTQIQSSLNGGGGHGGKGAPGPGGALPTCPACHKITPRTEAPVSSVSNSLENALHTSAHSTEESLPKRPLGKHSKVSVEKIDLKGLSHTKNDRNVECSFEVLWSDSSITSVTKSSSEVTEFISKLCQLYPEENLEKLIPCLAGPDAFYVERNHVDLDSGLRYLASLPSHVLKNDHVRRFLSTSSPPQQLQSPSPGNPSLSKVGTVMGVSGRPVCGVAGIPSSQSGAQHHGQHPAGSAAPLPHCSHAGSAGSALAYRTQMDTSPAILMPSSLQTPQTQEQNGILDWLRKLRLHKYYPVFKQLSMEKFLSLTEEDLNKFESLTMGAKKKLKTQLELEKEKSERRCLNPSAPPLVTSSGVARVPPTSHVGPVQSGRGSHAAELRVEVEQPHHQLPREGSSSEYSSSSSSPMGVQAREESSDSAEENDRRVEIHLESSDKEKPVMLLNHFTSSSARPTAQVLPVQNEASSNPSGHHPLPPQMLSAASHITPIRMLNSVHKPERGSADMKLLSSSVHSLLSLEERNKGSGPRSSMKVDKSFGSAMMDVLPASAPHQPVQVLSGLSESSSMSPTVSFGPRTKVVHASTLDRVLKTAQQPALVVETSTAATGTPSTVLHAARPPIKLLLSSSVPADSAISGQTSCPNNVQISVPPAIINPRTALYTANTKVAFSAMSSMPVGPLQGGFCANSNTASPSSHPSTSFANMATLPSCPAPSSSPALSSVPESSFYSSSGGGGSTGNIPASNPNHHHHHHHQQPPAPPQPAPPPPGCIVCTSCGCSGSCGSSGLTVSYANYFQHPFSGPSVFTFPFLPFSPMCSSGYVSAQQYGGGSTFPVVHAPYSSSGTPDPVLSGQSTFAVPPMQNFMAGTAGVYQTQGLVGSSNGSSHKKSGNLSCYNCGATGHRAQDCKQPSMDFNRPGTFRLKYAPPAESLDSTD
In the case of B1, the binding is reported as “binds”.
